# From PMC8068687
# Results are given in words; binding and its absence hold for the method and conditions named.
# B1: FhuF, ferric-siderophore reductase from E. coli K-12 (residues 18-262) (enzyme, UniProt P39405 18-262)
# chain: LQPQDPTLAQAVRATIAKHREHLLEFIRLDEPAPLNAMTLAQWSSPNVLSSLLAVYSDHIYRNQPMMIRENKPLISLWAQWYIGLMVPPLMLALLTQEKALDVSPEHFHAEFHETGRVACFWVDVCEDKNATPHSPQHRMETLISQALVPVVQALEATGEINGKLIWSNTGYLINWYLTEMKQLLGEATVESLRHALFFEKTLTNGEDNPLWRTVVLRDGLLVRRTCCQRYRLPDVQQCGDCTLK
# Tests used:
# [1] = molecular target: FhuF, ferric-siderophore reductase from E. coli K-12 (residues 18-262) (E. coli K-12) (UniProt P39405); experiment: SEC; purified FhuF on a SEC column (Superdex 75 10/300 GL in the methods); apparent molar mass ca 26.9 kDa against 28 kDa expected; both purified
# [2] = molecular target: FhuF, ferric-siderophore reductase from E. coli K-12 (residues 18-262) (E. coli K-12) (UniProt P39405); experiment: SEC-SAXS; in-line HPLC, Shodex KW402.5-4F column, 50 uL of 8.9 mg mL^-1 SEC-purified protein injected; 20 mM potassium phosphate pH 7.6, 150 mM NaCl; both purified
binder,measurement,setting,value
B1,binding,[1],no binding
same,binding,[2],no binding (tested: 8.9 mg mL^-1 injected)
